Laboratory results as given in PubChem BioAssay AID493203 (National Center for Advancing Translational Sciences (NCATS), 2011).
Inconclusive results, whose numbers are uncertain, are shown with a selection of clear calls. Where a call stands in place of a potency, no number is given. Potencies beside an inconclusive call are fits to weak or partial responses and may not hold up. The source made the active and inactive calls. The call rests on the fitted dose curve; in most records, active means well fitted activation curve with a large enough effect; inconclusive means small, poorly fitted or top-dose-only effect; inactive means flat fitted curve, though single readings scatter.

Test: qHTS Assay for NPC1 Promoter Activators: Initial hit validation from the primary screen
Details: Huh7 NPC1 promoter-luciferase reporter, luminescence, 24 h; series mostly up to 46.1 µM
Excerpt: NIH Chemical Genomics Center [NCGC] NIH Molecular Libraries Probe Production centers Network [MLPCN] MLPCN Grant: MH089375-01A1 Assay Submitter (PI): Yiannis A. Ioannou NCGC Assay Overview: Niemann Pick Type C (NPC) is a rare neurodegenerative lipidosis that is characterized by lipid storage in the endosomal/lysosomal system. Treatment modalities for this devastating disease are currently non-existent due to the severe obstacles associated with accessing the central nervous system with proteins or genes. The majority of mutations causing NPC disease are missense mutations that are distributed throughout the length of the NPC1 protein, with the most prevalent being the I1061T allele. Although NPC1 mutant proteins may be functional, they are typically trapped in the ER due to misfolding. […] We have developed and optimized a cell based luciferase reporter assay in 1536 well format for the identification of up-regulators of the mutant NPC1 promoter. This assay presents data on the validation of hits from the primary screen.
The NPC1 promoter is cloned in front of the luciferase reporter gene, therefore NPC promoter activation results in luciferase expression. Frozen stock of the NPC1 promoter transfected Huh7 cells were obtained from the laboratory of Dr. Yiannis Ioannou (The Mount Sinai School of Medicine, New York, NY). Cells were propagated and maintained at NCGC in medium containing RPMI-1640 supplemented with 10% FBS, 2mM L-glutamine, and 50ug/ml penicillin/streptomycin. Cells were harvested in and plated for assays in OP-MEM I reduced-serum medium supplemented with 10% FBS. The Amplite luciferase reporter gene assay kit was purchased from ABD Bioquest and prepared/stored according to manufacturers recommendations. qHTS Assay Setup: 1. Dispensed 5ul of Huh7 cells stably expressing NPC1-luciferase at a density of 1500 cells per well 1536-well plates. 2. Incubate cells at 37C, 5% CO2, and 95% humidity for 2 hours. 3. Transferred 23nl per well of compound in DMSO solution. 4. Incubated at 37C, 5% CO2, and 95% humidity for 24 hours. 5. Dispensed 3ul per well of Amplite reagent(ABD Bioquest) per well. 6. Incubate at ambient for 10 minutes. 7. Read using the luminescence protocol on the ViewLux plate reader (Perkin Elmer).
Potency means the concentration at half of the fitted maximal effect.

Row | Structure (SMILES) | Potency
1 | Cc1ccc(NC(=O)Nc2cccc3ccccc23)cc1 | inconclusive: 125 µM [activator, partial curve]
2 | O=C1c2ccccc2C(=O)N1Cc1nc2ccccc2c(=O)n1-c1cccnc1 | inactive
3 | COc1cccc(CCNCc2ccc(SC)cc2)c1 | inactive
4 | CN1CCc2cc3c(c4c2C1Cc1ccccc1-4)OCO3 (centres undefined) | inactive
